# In PubChem BioAssay AID662 (National Center for Advancing Translational Sciences (NCATS), 2007):
# The other results are listed elsewhere or left out. These are further read-outs of the screen, such as a control signal, another cell line or another target. No call is given for them. The list favours compounds with an active or inconclusive main result. The note in brackets gives the kind of curve behind each potency; many fits are weak.
# Assay: Cell signaling CRE-BLA (Fsk stim)
# Conditions: CHO CRE-bla reporter (cAMP response element driving beta-lactamase), forskolin EC10, beta-lactamase ratio; measured here: 460 nm blue channel
# Outline: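 qHTS titration format; CRE-bla CHO reporter; stimulus EC10 NKH 477, a water-soluble forskolin. Read: CCF4 460/530 nm ratio. Potency expressed as AC50 for activators or inhibitors.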
row,SMILES,AC50
1,COc1ccc(-n2c(=O)c(-c3cccs3)nc3cncnc32)cc1,"3.98 µM [rising, partial curve]"
2,N#CCCN(C(=O)CSc1ccc2c(c1)OCCO2)c1ccccc1,"0.0501 µM [falling, partial curve]"
3,CCOc1ccc2[nH]c(C)c(CN(C)C)c(=O)c2c1,"0.00316 µM [falling, full curve, poor fit]"
4,COc1ccc(NC(=O)c2ccco2)cc1NC(=O)c1cccc(OC(C)C)c1,"12.6 µM [rising, single point]"
5,Cc1cc2nc(SCC(=O)Nc3nonc3C)c3c(c2cc1C)CCCC3,"0.398 µM [falling, full curve]"
6,Clc1cccc(Cl)c1-c1nnc2ccc(N3CCOCC3)nn12,"3.98 µM [rising, full curve]"
7,COC(=O)[C@@]1(Cc2ccc(OC)cc2)[C@H]2c3cc(C(=O)N4CCCC4)n(CCSCCO)c3C[C@H]2CN1C(=O)c1ccccc1,"25.1 µM [rising, partial curve, poor fit]"
8,Cn1c(=O)c2c(n(Cc3ccccc3)c1=O)NC(=O)C2CC(=O)N1CCc2ccccc2C1 (stereo unspecified),"12.6 µM [falling, single point]"
9,CCN1CCN(C(=O)CN(c2cc(OC)ccc2OC)S(C)(=O)=O)CC1,"0.0501 µM [falling, full curve, poor fit]"
10,Cc1ccc(C)n1-c1ccc2c(c1)COC2=O,"0.0794 µM [rising, full curve, poor fit]"
11,CC[C@@H]1[C@H]2CCCCN3[C@@H]2[C@@H](C[C@H]3[C@@H]2C[C@H](C)C(=O)O2)[C@@H]2[C@H]1OC(=O)[C@H]2C,"31.6 µM [falling, single point]"
12,CC(C)c1nc2oc3c(=O)[nH]cnc3c2c2c1CCC2,"0.794 µM [rising, full curve]"
13,N#Cc1cc2c(=O)n3ccccc3nc2n(CCN2CCOCC2)c1=O,"25.1 µM [rising, single point]"
14,CCCCC(=O)NCCNc1nc2c(c(=O)n(C)c(=O)n2C)n1Cc1ccc(F)cc1,"12.6 µM [rising, partial curve]"
15,COc1ccc(-c2nc(-c3ccc(NC(=O)c4ccncc4)cc3)no2)cc1OC,"25.1 µM [falling, single point]"
16,O=C(Cn1cnc2c(cnn2-c2ccc(Cl)cc2)c1=O)NCC1CCCO1 (stereo unspecified),"0.398 µM [falling, full curve, poor fit]"
17,CCOC(=O)N1CCC(NC(=O)C2CCCN(c3nc4ccccc4o3)C2)CC1 (stereo unspecified),"25.1 µM [rising, single point]"
18,Clc1ccc(-n2ncc3c(NCC4CCCO4)ncnc32)cc1 (stereo unspecified),"3.16 µM [rising, partial curve]"
19,CC1=C(C(=O)OC2CCCCC2)C(c2ccc(C)o2)C2=C(CCCC2=O)N1 (stereo unspecified),"12.6 µM [rising, partial curve]"
20,COc1cc2nc(=S)n3[nH]c(CCn4nc(C)cc4C)nc3c2cc1OC,"25.1 µM [rising, single point]"
21,COc1ccc(C2c3sc(=O)[nH]c3SC3C(=O)N(c4ccccc4)C(=O)C32)cc1 (stereo unspecified),"2.51 µM [falling, full curve, poor fit]"

# Some of the entries so far, with tabs.
row	SMILES	AC50
11	CC[C@@H]1[C@H]2CCCCN3[C@@H]2[C@@H](C[C@H]3[C@@H]2C[C@H](C)C(=O)O2)[C@@H]2[C@H]1OC(=O)[C@H]2C	31.6 µM [falling, single point]
12	CC(C)c1nc2oc3c(=O)[nH]cnc3c2c2c1CCC2	0.794 µM [rising, full curve]
13	N#Cc1cc2c(=O)n3ccccc3nc2n(CCN2CCOCC2)c1=O	25.1 µM [rising, single point]

# (listing goes on)

row,SMILES,AC50
1,c1ccc2c(NCCN3CCOCC3)nc(-c3ccoc3)nc2c1,"15.8 µM [rising, partial curve]"
2,CC(C)(C)n1ncc2c(=O)n(CC(=O)NCCc3ccccc3)cnc21,"12.6 µM [rising, single point]"
3,O=C(Cn1cccc1C(=O)c1ccccc1)NCc1cccnc1,"25.1 µM [rising, single point]"
4,Cc1ccccc1-n1nnc2c(=O)oc3ccccc3c21,"31.6 µM [falling, single point]"
5,Cc1cccc(-n2c(N)c(C(=O)NCCN3CCOCC3)c3nc4ccccc4nc32)c1,"12.6 µM [rising, partial curve]"
6,CCCOc1ccc(C2C(=O)N(C3CCCCC3)CC(=O)N2CCC)cc1OC (stereo unspecified),"6.31 µM [rising, partial curve]"
7,O=C(O)c1cc(O)c2c(c1)C(=O)c1cccc(O)c1C2=O,"7.94 µM [rising, partial curve, poor fit]"
8,O=C(Nc1nc2c(ccc3ccccc32)s1)c1ccco1,"12.6 µM [falling, partial curve]"
9,O=C(NC1CCCCC1)N(CCN1CCOCC1)Cc1cc2cc3c(cc2[nH]c1=O)OCCO3,"10 µM [rising, partial curve]"
10,Cn1c(=O)[nH]c(=O)c2c1nc(N1CCCCCC1)n2CCCSc1nc2ccccc2o1,"0.398 µM [rising, single point]"
11,Cc1ccc(N2C(=O)C3C(C2=O)C(C(=O)c2ccc(Cl)cc2)N2CCCC32)cc1 (stereo unspecified),"3.16 µM [falling, full curve]"
12,NC(=NCc1ccccc1)NC(=O)c1nc(Cl)c(N)nc1N,"12.6 µM [falling, single point]"
13,O=C(c1cnccn1)N1CCC2(CC1)CCN(c1ncccn1)CC2,"5.01 µM [falling, single point]"
14,CCN(CC)S(=O)(=O)c1ccc(C(=O)Nc2ncn(Cc3ccccc3)n2)cc1,"0.02 µM [falling, full curve, poor fit]"
15,CCc1nnc(NC(=O)c2cccc(C(=O)Nc3nnc(CC)s3)n2)s1,"0.0631 µM [falling, full curve, poor fit]"
16,CCOC(=O)c1[nH]c2ccccc2c1NC(=O)c1cc(OC)c(OC)c(OC)c1,"2.51 µM [rising, partial curve]"
17,COc1ccc(N/C=C2\CCOC2=O)cc1,"0.398 µM [rising, full curve]"
18,COCCOc1ccc(C(F)(F)F)cc1Nc1nc2ccccc2o1,"10 µM [rising, partial curve]"
19,COc1ccccc1CNC(=O)C1CCN(S(C)(=O)=O)CC1,"0.00398 µM [falling, full curve, poor fit]"
20,CCc1c2c(nc3c(C(C)C)cccc13)-c1cccc(=O)n1C2,"10 µM [rising, partial curve]"
